Results are given in words; binding and its absence hold for the method and conditions named. Binding seen in cells or lysates may run through a third protein. Some results given as binding are weak or reduced against the parent protein; the word gives no strength.
Target: T1, adaptor protein FAM159B (human (endogenous in BON-1)) (UniProt A6NKW6)
T1 sequence: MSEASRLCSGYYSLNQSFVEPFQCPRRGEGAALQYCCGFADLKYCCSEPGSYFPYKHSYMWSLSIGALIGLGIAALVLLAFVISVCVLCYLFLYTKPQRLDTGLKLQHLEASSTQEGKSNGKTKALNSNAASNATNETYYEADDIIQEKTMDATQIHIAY
Assay: co-IP; endogenous proteins in BON-1 lysate (150 mM NaCl, 50 mM Tris-HCl pH 7.4, 5 mM EDTA, 1% Triton X-100, 0.5% Na-deoxycholate, 0.1% SDS); precleared with protein A/G PLUS agarose beads; precipitated with anti-FAM159B HPA011778 for 1 h at 4 °C, then new protein A/G beads; blot with anti-NSE antibody

By UniProt entry, the sequences of proteins in these tests, tags left out.
UniProt P09104: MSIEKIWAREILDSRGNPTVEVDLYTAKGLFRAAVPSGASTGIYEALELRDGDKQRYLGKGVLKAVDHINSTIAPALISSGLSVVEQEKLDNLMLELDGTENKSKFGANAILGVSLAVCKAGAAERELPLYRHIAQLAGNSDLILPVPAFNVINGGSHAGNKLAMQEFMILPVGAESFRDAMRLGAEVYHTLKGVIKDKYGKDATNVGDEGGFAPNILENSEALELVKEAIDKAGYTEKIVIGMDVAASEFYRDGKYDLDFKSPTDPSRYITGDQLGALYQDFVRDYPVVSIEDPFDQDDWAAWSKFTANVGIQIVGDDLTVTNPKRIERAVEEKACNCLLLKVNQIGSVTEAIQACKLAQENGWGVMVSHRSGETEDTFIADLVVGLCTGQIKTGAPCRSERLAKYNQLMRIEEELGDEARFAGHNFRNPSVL

In the case of “neuron-specific enolase (from UniProt P09104 1-434) (enzyme)”, the binding is reported as “binds”.
